These results are taken from patent US20190153112A1 (IMMUTEP S A S, published 2019).

Results are given in words; binding and its absence hold for the method and conditions named. Some entries that bind do so weakly or less than the wild type. Sequences can lack the tags named with a protein.

This test has as its target T1, IMP321 (recombinant soluble human LAG-3Ig fusion protein) (human) (UniProt P18627).
T1 sequence (looked up): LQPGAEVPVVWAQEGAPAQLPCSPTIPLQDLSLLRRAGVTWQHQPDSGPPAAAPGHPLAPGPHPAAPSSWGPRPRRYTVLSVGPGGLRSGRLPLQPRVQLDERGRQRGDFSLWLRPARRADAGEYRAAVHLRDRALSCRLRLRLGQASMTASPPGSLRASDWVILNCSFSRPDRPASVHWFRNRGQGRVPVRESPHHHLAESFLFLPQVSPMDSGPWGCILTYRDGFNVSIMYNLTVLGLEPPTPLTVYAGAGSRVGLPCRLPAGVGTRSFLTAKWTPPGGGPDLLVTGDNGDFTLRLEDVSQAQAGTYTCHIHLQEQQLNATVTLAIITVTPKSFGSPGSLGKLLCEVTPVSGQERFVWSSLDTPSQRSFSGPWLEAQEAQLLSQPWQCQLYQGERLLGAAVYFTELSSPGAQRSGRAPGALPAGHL
Put plainly: Biacore SPR. In general terms: Surface plasmon resonance follows binding to a sensor surface in real time, without labels.

B1: chimeric 13E2-human IgG4 antibody Chim13E2IgG4 (antibody, V domains shown)
VH: QVTLKESGPGILQPSQTLSLTCSFSGFSLSTSGMGLGWIRQPSGKGLEWLTHIWWDDIKRYNPDLRSRLTISKDTSSSQIFLKIASVDTADTATYYCARIVEGSYSSSYFDVWGAGTTVTVSS
VL: DIVMTQPHKFMSTSVEDRVTITCKASQDVIFDVAWYQQKPGQSPKLLIYSASSRVSGVPDRFTGSGSGTDFTFTISSVQAEDLAVYYCQQHYSTPYTFGGGTTLEIKR
notes: The light chain is the 13E2 VL with wild-type human kappa; also called chimeric 13E2 IgG4; heavy chain 13E2IgG4mut
Regarding B1, the binding result is given as “binds”.

B2: humanized 13E2 monoclonal antibody IMP761 (antibody, human IgG4 S228P, kappa, V domains shown)
VH: QITLKESGPTLVKPTQTLTLTCTFSGFSLSTSGMGLGWIRQPPGKTLEWLTHIWWDDIKRYNPDLRSRLSITKDTSKNQVVLTMTNMDPLDTGTYYCARIVEGSYSSSYFDVWGQGTLVTVSS
VL: DIVMTQTPSSLSASVGDRVTITCKASQDVIFDVAWYQQRPGQAPKLLIYSASSRVSGVPSRFSGSGSGTDFTLTISSLQPEDFATYYCQQHYSTPYTFGQGTRLDIKR
notes: Human IgG4 (S228P) with kappa light chain; also called humanized 13E2 IgG4; VH4/VL3
B2: the binding result is “binds”.
